# The other results are listed elsewhere or left out.
# B1: Layilin (Mus musculus), Q8C351 (protein)
# chain: MQPGAALQAMLLAVLLAKPRDSKGRLLSASDLDPRGGQLVCRGGTRRPCYKVIYFHDAFQRLNFEEAKETCMEDGGQLVSIETEDEQRLIEKFIENLLASDGDFWIGLKRLEEKQSNNTACQDLYAWTDGSTSQFRNWYVDEPSCGSEVCVVMYHQPSAPPGIGGSYMFQWNDDRCNMKNNFICKYHDDKPSTTPSIWPGGEATEPATPLLPEETQKEDTKETFKERREAALNLAYILIPSIPLFLLLVVTSAVCWVWICRRKREQTDPSTKEQHTIWPTPRQENSPNLDVYNVIRKQSEADLAEPRPDLKNISFRVCSGEAMPDDMSCDYENIAVNPSESGFVTLASMESGFVTNDIYEFSPDRMGRSKESGWVENEIYY
# Columns and labels:
# Assay in all cases: glycan array binding signal (z-score within array); higher = stronger binding
# Details in all cases: glycan notation: IUPAC condensed, linker removed
# [1] = target: Neu5Ac(a2-3)Gal(b1-3)GalNAc6S
# Procedure, shortened: (§1)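 Glycan array data came from 3228 arrays in the Consortium for Functional Glycomics database, and only arrays with an available protein sequence were kept. Glycan names were put into IUPAC-condensed notation, and columns mapping to the same glycan were averaged. The binding signal is a within-array Z-score, averaged across arrays of one protein sequence run at different concentrations or buffers and across linkers. A negative Z-score can be read as non-binding.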
# [2] = target: Neu5Ac(a2-3)Gal(b1-3)GlcNAc
# Procedure, shortened: as §1
# [3] = target: Neu5Ac(a2-3)Gal(b1-3)GlcNAc(b1-3)Gal(b1-3)GlcNAc
# Procedure, shortened: as §1
# [4] = target: Neu5Ac(a2-3)Gal(b1-3)GlcNAc(b1-3)Gal(b1-4)GlcNAc
# Procedure, shortened: as §1
# [5] = target: Neu5Ac(a2-3)Gal(b1-3)GlcNAc(b1-3)GalNAc
# Procedure, shortened: as §1
# [6] = target: Neu5Ac(a2-3)Gal(b1-3)GlcNAc6S
# Procedure, shortened: as §1
# [7] = target: Neu5Ac(a2-3)Gal(b1-3)[Fuc(a1-4)]GlcNAc
# Procedure, shortened: as §1
# [8] = target: Neu5Ac(a2-3)Gal(b1-3)[Fuc(a1-4)]GlcNAc(b1-3)Gal(b1-3)[Fuc(a1-4)]GlcNAc
# Procedure, shortened: as §1
# [9] = target: Neu5Ac(a2-3)Gal(b1-3)[Fuc(a1-4)]GlcNAc(b1-3)Gal(b1-4)[Fuc(a1-3)]GlcNAc
# Procedure, shortened: as §1
# [10] = target: Neu5Ac(a2-3)Gal(b1-3)[Neu5Ac(a2-3)Gal(b1-4)]GlcNAc
# Procedure, shortened: as §1
# [11] = target: Neu5Ac(a2-3)Gal(b1-3)[Neu5Ac(a2-6)]GalNAc
# Procedure, shortened: as §1
# Neu5Ac(a2-3)Gal(b1-4)Glc = target: Neu5Ac(a2-3)Gal(b1-4)Glc
# Procedure, shortened: as §1
# [12] = target: Neu5Ac(a2-3)Gal(b1-4)GlcNAc
# Procedure, shortened: as §1
# [13] = target: Neu5Ac(a2-3)Gal(b1-4)GlcNAc(b1-2)Man(a1-3)[GlcNAc(b1-2)Man(b1-4)GlcNAc(b1-2)Man(a1-6)]Man(b1-4)GlcNAc(b1-4)GlcNAc
# Procedure, shortened: as §1
# [14] = target: Neu5Ac(a2-3)Gal(b1-4)GlcNAc(b1-2)Man(a1-3)[Neu5Ac(a2-6)Gal(b1-4)GlcNAc(b1-2)Man(a1-6)]Man(b1-4)GlcNAc(b1-4)GlcNAc
# Procedure, shortened: as §1
# [15] = target: Neu5Ac(a2-3)Gal(b1-4)GlcNAc(b1-3)Gal
# Procedure, shortened: as §1
# [16] = target: Neu5Ac(a2-3)Gal(b1-4)GlcNAc(b1-3)Gal(b1-3)GlcNAc
# Procedure, shortened: as §1
# [17] = target: Neu5Ac(a2-3)Gal(b1-4)GlcNAc(b1-3)Gal(b1-4)GlcNAc
# Procedure, shortened: as §1
# [18] = target: Neu5Ac(a2-3)Gal(b1-4)GlcNAc(b1-3)Gal(b1-4)GlcNAc(b1-3)Gal(b1-4)GlcNAc
# Procedure, shortened: as §1
# [19] = target: Neu5Ac(a2-3)Gal(b1-4)GlcNAc(b1-3)Gal(b1-4)[Fuc(a1-3)]GlcNAc
# Procedure, shortened: as §1
# [20] = target: Neu5Ac(a2-3)Gal(b1-4)GlcNAc(b1-3)GalNAc
# Procedure, shortened: as §1
# [21] = target: Neu5Ac(a2-3)Gal(b1-4)GlcNAc(b1-6)[Gal(b1-3)]GalNAc
# Procedure, shortened: as §1
# [22] = target: Neu5Ac(a2-3)Gal(b1-4)GlcNAc(b1-6)[Neu5Ac(a2-3)Gal(b1-3)]GalNAc
# Procedure, shortened: as §1
# [23] = target: Neu5Ac(a2-3)Gal(b1-4)GlcNAc6S
# Procedure, shortened: as §1
# [24] = target: Neu5Ac(a2-3)Gal(b1-4)[Fuc(a1-3)]GlcNAc
# Procedure, shortened: as §1
# [25] = target: Neu5Ac(a2-3)Gal(b1-4)[Fuc(a1-3)]GlcNAc(b1-3)Gal
# Procedure, shortened: as §1
# [26] = target: Neu5Ac(a2-3)Gal(b1-4)[Fuc(a1-3)]GlcNAc(b1-3)Gal(b1-4)GlcNAc
# Procedure, shortened: as §1
# [27] = target: Neu5Ac(a2-3)Gal(b1-4)[Fuc(a1-3)]GlcNAc(b1-3)Gal(b1-4)[Fuc(a1-3)]GlcNAc(b1-3)Gal(b1-4)[Fuc(a1-3)]GlcNAc
# Procedure, shortened: as §1
# [28] = target: Neu5Ac(a2-3)Gal(b1-4)[Fuc(a1-3)]GlcNAc(b1-3)GalNAc
# Procedure, shortened: as §1
# [29] = target: Neu5Ac(a2-3)Gal(b1-4)[Fuc(a1-3)]GlcNAc(b1-6)[Gal(b1-3)]GalNAc
# Procedure, shortened: as §1
# [30] = target: Neu5Ac(a2-3)Gal(b1-4)[Fuc(a1-3)]GlcNAc6S
# Procedure, shortened: as §1
# [31] = target: Neu5Ac(a2-3)Gal6S(b1-4)GlcNAc
# Procedure, shortened: as §1
# [32] = target: Neu5Ac(a2-3)Gal6S(b1-4)[Fuc(a1-3)]GlcNAc
# Procedure, shortened: as §1
# Neu5Ac(a2-3)GalNAc = target: Neu5Ac(a2-3)GalNAc
# Procedure, shortened: as §1
# [33] = target: Neu5Ac(a2-3)GalNAc(b1-4)GlcNAc
# Procedure, shortened: as §1
# [34] = target: Neu5Ac(a2-3)[GalNAc(b1-4)]Gal(b1-4)Glc
# Procedure, shortened: as §1
# [35] = target: Neu5Ac(a2-3)[GalNAc(b1-4)]Gal(b1-4)GlcNAc
# Procedure, shortened: as §1
binder,measurement,setting,value
B1,glycan array binding signal (z-score),[1],1.1
same,glycan array binding signal (z-score),[2],0.72
same,glycan array binding signal (z-score),[3],-0.153
same,glycan array binding signal (z-score),[4],0.14
same,glycan array binding signal (z-score),[5],-0.44
same,glycan array binding signal (z-score),[6],-0.283
same,glycan array binding signal (z-score),[7],-1.22
same,glycan array binding signal (z-score),[8],-0.596
same,glycan array binding signal (z-score),[9],-1.13
same,glycan array binding signal (z-score),[10],0.018
same,glycan array binding signal (z-score),[11],0.175
same,glycan array binding signal (z-score),Neu5Ac(a2-3)Gal(b1-4)Glc,-0.492
same,glycan array binding signal (z-score),[12],-0.203
same,glycan array binding signal (z-score),[13],-0.497
same,glycan array binding signal (z-score),[14],-0.343
same,glycan array binding signal (z-score),[15],0.955
same,glycan array binding signal (z-score),[16],-0.17
same,glycan array binding signal (z-score),[17],-0.594
same,glycan array binding signal (z-score),[18],-1.11
same,glycan array binding signal (z-score),[19],0.119
same,glycan array binding signal (z-score),[20],-0.963
same,glycan array binding signal (z-score),[21],-0.144
same,glycan array binding signal (z-score),[22],0.253
same,glycan array binding signal (z-score),[23],0.585
same,glycan array binding signal (z-score),[24],-0.387
same,glycan array binding signal (z-score),[25],-0.973
same,glycan array binding signal (z-score),[26],-0.212
same,glycan array binding signal (z-score),[27],2.92
same,glycan array binding signal (z-score),[28],1.82
same,glycan array binding signal (z-score),[29],4.15
same,glycan array binding signal (z-score),[30],-0.418
same,glycan array binding signal (z-score),[31],-0.818
same,glycan array binding signal (z-score),[32],-0.666
same,glycan array binding signal (z-score),Neu5Ac(a2-3)GalNAc,-0.499
same,glycan array binding signal (z-score),[33],-0.557
same,glycan array binding signal (z-score),[34],-0.643
same,glycan array binding signal (z-score),[35],-0.045

# Laid out differently: results already given
binder | measurement | setting | value
B1 | glycan array binding signal (z-score) | [10] | 0.018
same | glycan array binding signal (z-score) | [11] | 0.175

# Source: the supplement of paper PMC8728848
